Assay results: US4055468A (priority 1974, dated 1977)
Strings that start with PEPTIDE1 are HELM notation: dots part the residues, brackets hold end groups and non-standard residues.

Assay: peptide synthesis

Row | Substance | step yield (late stage modification step) [%] | further results
1 | PEPTIDE1{[Isobutyryl].V.[Sta].A.[Sta]}$$$$V2.0 | 50 | –
2 | PEPTIDE1{[ac].V.[Sta].A.[Sta]}$$$$V2.0 | – | step yield (late stage modification step, run 1): 81%; step yield (late stage modification step, run 2): 65%
3 | PEPTIDE1{[Bz].V.[Sta].A.[Sta]}$$$$V2.0 | 32 | –
4 | PEPTIDE1{[Phenoxyacetyl].V.[Sta].A.[Sta]}$$$$V2.0 | 44 | –
5 | PEPTIDE1{[2-Phenoxypropionyl].V.[Sta].A.[Sta]}$$$$V2.0 | 75 | –
6 | PEPTIDE1{[Palmitoyl].V.[Sta].A.[Sta]}$$$$V2.0 | – | step yield (lipidation step): 78%
